Experimental data: patent US7060435
Where cells or extracts were used, other partners may take part. For some assays here: No signal at the amounts used counts as a negative.

Protein sequences, listed by entry. Tags and fused reporters are not part of them. Residues count along the entry.
UniProt P08047, 2-785: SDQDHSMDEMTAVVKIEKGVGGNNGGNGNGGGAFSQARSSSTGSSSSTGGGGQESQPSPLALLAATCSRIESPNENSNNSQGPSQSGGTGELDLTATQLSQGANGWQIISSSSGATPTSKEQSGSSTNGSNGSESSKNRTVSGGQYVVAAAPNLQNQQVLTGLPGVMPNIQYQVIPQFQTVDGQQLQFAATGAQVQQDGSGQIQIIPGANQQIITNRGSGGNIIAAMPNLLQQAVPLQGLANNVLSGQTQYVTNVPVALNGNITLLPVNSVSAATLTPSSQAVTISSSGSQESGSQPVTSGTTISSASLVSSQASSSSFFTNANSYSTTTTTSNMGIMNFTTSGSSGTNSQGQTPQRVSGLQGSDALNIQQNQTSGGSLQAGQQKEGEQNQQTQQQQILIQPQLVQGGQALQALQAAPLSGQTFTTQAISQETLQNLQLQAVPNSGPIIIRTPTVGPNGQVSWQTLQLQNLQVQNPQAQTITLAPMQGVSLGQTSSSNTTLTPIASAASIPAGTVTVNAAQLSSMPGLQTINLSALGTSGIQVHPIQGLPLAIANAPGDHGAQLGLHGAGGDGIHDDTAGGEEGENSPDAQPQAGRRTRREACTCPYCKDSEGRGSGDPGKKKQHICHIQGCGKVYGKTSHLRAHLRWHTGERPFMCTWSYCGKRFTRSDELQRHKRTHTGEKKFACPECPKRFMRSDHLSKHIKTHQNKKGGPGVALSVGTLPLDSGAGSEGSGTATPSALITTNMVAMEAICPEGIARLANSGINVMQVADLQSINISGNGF

Legend:
[1] = target: Sp1 (UniProt P08047); test: EMSA; conditions: band shift with 2 ug HeLa nuclear extract, 30 min 16 C; competed by 50-100x unlabeled self; supershifted by anti-Sp1 antibody; protein in an extract; label: 32P 5' end (T4 polynucleotide kinase); variant of CYP3A5 wild-type -147A 31-mer
[2] = target: Sp1 (UniProt P08047); test: competition with a labelled probe; conditions: 50- and 100-fold excess unlabeled wild-type oligo did not compete the A-147G band shift; protein in an extract

Sequence	binding result [1]	binding result [2]
GGCAGCTGCAGCCCCGCCTCCTTCTCCAGCA (double strand) [CYP3A5 A-147G 31-mer]	binds	
GGCAGCTGCAGCCCCACCTCCTTCTCCAGCA (double strand) [CYP3A5 wild-type -147A 31-mer]		no binding
